{"source": "PubChem BioAssay AID504774 (Drosophila RNAi Screening Center, 2011)", "purpose": "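Knock-downs that shift viability of MMS-exposed cells relative to untreated ones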 (primary screen)", "cells": "Drosophila Kc167 cells", "knock-down reagent": "long dsRNA against Drosophila genes, about 0.25 µg dsRNA per well", "duration": "about 6 days: 3 days knock-down, then 3 days with or without MMS", "challenge": "methyl methanesulphonate 0.004% (w/v) for 3 days after knock-down", "measured": "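ATP-dependent luminescence as a measure of live cells in MMS-exposed wells, quantile normalised within each plate, with replicate values also given as a mean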", "scale": "mean viability with MMS: higher = more surviving cells after MMS", "note": "In all, the deposit lists about 23,000 reagents; shown is a random part of those that have a named target and a result. 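Values are quantile-normalised luminescence on an arbitrary scale; higher means more cells surviving MMS.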 Reagents against one gene are numbered here. Not all columns of the deposit are shown."}
{"gene knocked down":"CG32276","dsRNA no.":1,"mean viability with MMS":3.42e6}
{"gene knocked down":"CG12177","dsRNA no.":1,"mean viability with MMS":3.53e6}
{"gene knocked down":"CG12177","dsRNA no.":2,"mean viability with MMS":3.69e6}
{"gene knocked down":"Abi","dsRNA no.":1,"mean viability with MMS":3.66e6}
{"gene knocked down":"CG13810","dsRNA no.":1,"mean viability with MMS":3.73e6}
{"gene knocked down":"CG13810","dsRNA no.":2,"mean viability with MMS":3.52e6}
{"gene knocked down":"Theg","dsRNA no.":1,"mean viability with MMS":3.36e6}
{"gene knocked down":"CG32712","dsRNA no.":1,"mean viability with MMS":3.63e6}
{"gene knocked down":"CG5342","dsRNA no.":1,"mean viability with MMS":3.69e6}
{"gene knocked down":"lobo","dsRNA no.":1,"mean viability with MMS":3.55e6}
{"gene knocked down":"lobo","dsRNA no.":2,"mean viability with MMS":3.58e6}
{"gene knocked down":"CG15226 (retired record)","dsRNA no.":1,"mean viability with MMS":3.55e6}
{"gene knocked down":"CG15226 (retired record)","dsRNA no.":2,"mean viability with MMS":3.47e6}
{"gene knocked down":"shu","dsRNA no.":1,"mean viability with MMS":3.46e6}

2 neighbouring records from above:
{"gene knocked down":"lobo","dsRNA no.":2,"mean viability with MMS":3.58e6}
{"gene knocked down":"CG15226 (retired record)","dsRNA no.":1,"mean viability with MMS":3.55e6}

Continued.
{"gene knocked down":"alc","dsRNA no.":1,"mean viability with MMS":3.58e6}
{"gene knocked down":"alc","dsRNA no.":2,"mean viability with MMS":3.56e6}
{"gene knocked down":"alc","dsRNA no.":3,"mean viability with MMS":3.90e6}
{"gene knocked down":"Gpdh1","dsRNA no.":1,"mean viability with MMS":3.66e6}
{"gene knocked down":"Gpdh1","dsRNA no.":2,"mean viability with MMS":3.32e6}
{"gene knocked down":"tamo","dsRNA no.":1,"mean viability with MMS":3.59e6}
{"gene knocked down":"phu","dsRNA no.":1,"mean viability with MMS":3.55e6}
{"gene knocked down":"Pex5","dsRNA no.":1,"mean viability with MMS":3.53e6}
{"gene knocked down":"ssp3","dsRNA no.":1,"mean viability with MMS":3.57e6}
{"gene knocked down":"ssp3","dsRNA no.":2,"mean viability with MMS":3.58e6}
